Assay results published in PMC5612113.
Results are given in words; binding and its absence hold for the method and conditions named. Some entries that bind do so weakly or less than the wild type. Values belong to the binder of their own block, whether it stands above or below them.

What was measured:
Assay in all cases: Tango membrane protein-protein interaction assay; one partner fused to TEV protease, the other to TEV site–rTA, co-expressed in PS1/PS2-deleted HTL cells; released rTA drives a luciferase reporter; normalised to Renilla luciferase, WT set at 100%
[1] = target: Notch3 TM helix-containing fragment, Notch3(1629–1675) (human) (UniProt Q9UM47)
[2] = target: Notch4 TM helix-containing fragment, Notch4(1432–1481) (human) (UniProt Q99466)
[3] = target: Notch2 TM helix-containing fragment, Notch2(1666–1710) (human) (UniProt Q04721)

binding [1]: binds
Binder: VRGEPLEPPEPSVPLLPLLVAGAVLLLVILVLGVMVARRKREHSTLW (domain or fragment, UniProt Q9UM47 1629-1675) [Notch3 TM helix-containing fragment, Notch3(1629–1675)]

binding [2]: binds
Binder: VHPHAGTAPPANQLPWPVLCSPVAGVILLALGALLVLQLIRRRRREHGAL (domain or fragment, UniProt Q99466 1432-1481) [Notch4 TM helix-containing fragment, Notch4(1432–1481)]

binding [3]: binds
Binder: VVSESLTPERTQLLYLLAVAVVIILFIILLGVIMAKRKRKHGSLW (domain or fragment, UniProt Q04721 1666-1710) [Notch2 TM helix-containing fragment, Notch2(1666–1710)]
